According to PMC11234063, “Eugenol and lidocaine inhibit voltage-gated Na^+ channels from dorsal root ganglion neurons with different mechanisms” (Frontiers in Pharmacology, 2024):

System: DRG neurons
Test: Membrane resistance, hyperpolarizing pulse to −130 mV
Type: cell-based, rat
Settings: EUG 3 mM

C=CCc1ccc(O)c(OC)c1 [EUG, 4-allyl-2-methoxyphenol]
Membrane resistance of individual cells after exposure: 148.9 MΩ and 137.89 MΩ and 372.68 MΩ and 102.77 MΩ and 96.73 MΩ and 335.87 MΩ and 478.4 MΩ and 443.12 MΩ and 619.22 MΩ and 153.08 MΩ and 87.91 MΩ and 171.41 MΩ and 172.79 MΩ and 163.83 MΩ and 828.28 MΩ and 690.18 MΩ and 188.31 MΩ and 188.3 MΩ and 155.05 MΩ

Where “and” joins values, the source holds several entries; their conditions need not be identical. Equal values may be shown once.
